# Among all 360,000 compounds or so, about 7,500 (2.1%) were called active. The inconclusive results got no clear call from the source; some entries with a clear call stand among them for comparison. Calls come from the whole dose curve; as a rule, active = well fitted inhibition curve with a large enough effect; inconclusive = small, poorly fitted or top-dose-only effect, or effect the other way; inactive = flat fitted curve, though single readings scatter. Where the call is inconclusive, the potency comes from a doubtful curve fit.
# Assay: Nrf2 qHTS screen for inhibitors; note: nearly all actives have a fitted effect of over 60% in size
# Details: A549 ARE-Fluc reporter, luciferase luminescence, 18-24 h; activity change, negative = inhibition: at 46 µM (top of the series)
# Procedure, shortened: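 Two sequential reads on A549 ARE_Fluc cells exposed to compound for 18-24 h: a CellTiter-Fluor fluorescence read for viability, then a luciferase luminescence read for Nrf2/ARE activity.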
# % is set by controls: 0 for no effect and ±100 for the full control effect; potency is the fitted concentration of half-maximal effect.
SMILES,Potency,"activity change, negative = inhibition"
COc1cc(NS(=O)(=O)c2ccc3c(c2)CC(C)N3C(=O)C2CCC2)cc(OC)c1OC (stereo unspecified),active: 6.51 µM,–
COC(=O)c1c(NC(C)=O)sc(C(=O)Nc2ccccc2F)c1C,"inconclusive: 1.46 µM [activator, full curve]",–
Cc1ccc(NC(=O)c2cc3ccccc3o2)cc1,"inconclusive: 7.31 µM [activator, partial curve]",–
CCc1ccc(NC(=O)CN2C(=O)C3CCCN3c3ccc(S(=O)(=O)N(CC)CC)cc32)cc1 (stereo unspecified),–,inactive: 13.7%
COc1ccc(CCNc2ncnc3onc(-c4ccc(Cl)cc4)c23)c(OC)c1,"inconclusive: 18.4 µM [falling, single point]",–
CSc1ccccc1NC(=O)CN(Cc1ccc(Cl)cc1)S(C)(=O)=O,"inconclusive: 29.1 µM [falling, single point]",–
O=C(NC1CCCCC1)c1ccc(-c2ccccc2[N+](=O)[O-])o1,"inconclusive: 23.1 µM [activator, partial curve]",–
O=C(N=Nc1c(O)[nH]c2ccccc12)Nc1ccccc1,"inconclusive: 1.46 µM [activator, full curve]",–
O=C(Nc1nc2c(F)cc(F)cc2s1)C1CCN(C(=O)c2ccc(F)cc2)CC1,"inconclusive: 6.51 µM [activator, full curve]",–
CCOc1cccc2sc(=NC(=O)CCS(=O)(=O)c3ccc(F)cc3)n(C)c12,"inconclusive: 16.4 µM [falling, single point]",–
CCC(NC(C)C)C(O)c1ccc(O)c(O)c1 (stereo unspecified),"inconclusive: 1.84 µM [falling, partial curve, poor fit]",–
Cc1ccc(N(CC(O)Cn2c3ccccc3c3ccccc32)S(=O)(=O)c2ccc(F)cc2)cc1 (stereo unspecified),"inconclusive: 29.1 µM [falling, single point]",–
Cn1c(=O)cc(OCCCC(=O)Nc2cccnc2)c2ccccc21,"inconclusive: 20.6 µM [falling, single point]",–
COc1ccc2cc(C3CC(c4cccs4)=NN3C(C)=O)c(Cl)nc2c1 (stereo unspecified),–,inactive: 0.514%
CCc1c(C)sc(NC(=O)c2cccs2)c1C(N)=O,"inconclusive: 16.4 µM [activator, partial curve]",–
CCN(CC(=O)NCc1cccs1)C(=O)c1ccc(-c2cccc(C(F)(F)F)c2)o1,"inconclusive: 20.6 µM [falling, partial curve, poor fit]",–
Cc1ccccc1Nc1sc(C(=O)c2ccccc2)c(N)c1S(C)(=O)=O,"inconclusive: 3.66 µM [falling, single point]",–
O=C(COC(=O)c1cc(-c2cccc(Br)c2)nc2ccccc12)NCC1CCCO1 (stereo unspecified),"inconclusive: 16.4 µM [activator, single point]",–
Cc1ccc(-n2c(Cc3ccccc3)nnc2SCC(=O)NNC(=O)Cc2ccccc2)cc1,–,inactive: 14.6%
O=C(OCc1ccccc1)N1CCC2CC1c1cc(-c3ccc(F)cc3)ccc12 (stereo unspecified),"inconclusive: 32.6 µM [activator, single point]",–
COc1ccc(C(O)c2nccn2Cc2ccccc2)cc1OC (stereo unspecified),"inconclusive: 9.2 µM [falling, partial curve]",–
O=C(c1c(F)cccc1F)N1CCCC1,–,inactive: 2.79%

# Three entries from above in another layout.
SMILES	Potency	activity change, negative = inhibition
CCC(NC(C)C)C(O)c1ccc(O)c(O)c1 (stereo unspecified)	inconclusive: 1.84 µM [falling, partial curve, poor fit]	–
Cc1ccccc1Nc1sc(C(=O)c2ccccc2)c(N)c1S(C)(=O)=O	inconclusive: 3.66 µM [falling, single point]	–
O=C(COC(=O)c1cc(-c2cccc(Br)c2)nc2ccccc12)NCC1CCCO1 (stereo unspecified)	inconclusive: 16.4 µM [activator, single point]	–

# Remaining list, next part.

SMILES,Potency,"activity change, negative = inhibition"
CCn1nc(C(=O)OCC(=O)c2cc(C)n(Cc3cccs3)c2C)c2ccccc2c1=O,"inconclusive: 9.2 µM [falling, partial curve, poor fit]",–
O=C(Nc1ccccc1-c1nnn(CC(=O)N2CCCc3ccccc32)n1)c1ccco1,"inconclusive: 25.9 µM [falling, single point]",–
Cc1cc(OCC(=O)N(Cc2ccc(N(C)C)cc2)Cc2ccco2)cc(C)c1Cl,"inconclusive: 16.4 µM [falling, single point]",–
Cc1nn(-c2ccccc2)c(-n2cccc2)c1C(=O)N1CCN(c2ccccc2)CC1,–,inactive: 30.1%
COc1cc(-c2nnc3sc(C4CCCCC4)nn23)cc(OC)c1OC,active: 13 µM,–
CCOC(=O)c1nc(Nc2ccc(Nc3ccccc3)cc2)c2ccccc2n1,"inconclusive: 10.3 µM [falling, partial curve, poor fit]",–
CCCn1c(SCCN2C(=O)c3ccccc3C2=O)n[nH]c1=O,"inconclusive: 5.8 µM [falling, partial curve, poor fit]",–
O=C(Nc1noc2ccccc12)c1cccc(Cl)c1Cl,"inconclusive: 3.26 µM [activator, partial curve]",–
COc1ccc(-c2ccc(SCC(=O)NC3CCCCC3)nn2)cc1OC,"inconclusive: 16.4 µM [falling, single point]",–
CCS(=O)(=O)Nc1ccc(C2=NN(C(=O)c3ccccc3)C(c3cccs3)C2)cc1 (stereo unspecified),"inconclusive: 29.1 µM [falling, single point]",–
Cc1ccc(C)c(SCC(=O)Nc2cccc(S(=O)(=O)N3CCOCC3)c2)c1,"inconclusive: 25.9 µM [falling, single point]",–
COc1ccc(-c2ccc(OC)c([C@H]3[C@@H]4C=CCC[C@@]4(C)C(=O)N3Cc3ccccc3)c2)cc1OC,"inconclusive: 18.4 µM [falling, single point]",–
C/C(=N/NC(=O)CN1CCN(Cc2ccccc2Cl)CC1)c1ccco1,"inconclusive: 29.1 µM [falling, single point]",–
COc1ccccc1-c1nc2c(c(SCc3cc(C)ccc3C)n1)Cc1c(CO)cnc(C)c1O2,"inconclusive: 23.1 µM [falling, single point]",–
CCCNC(=O)Cn1nc(-c2ccc(C)c(C)c2)c2cnc3ccc(OC)cc3c21,"inconclusive: 14.6 µM [falling, single point]",–
CN1CCc2cccc3c2[C@H]1Cc1ccc(O)c(O)c1-3,inactive,–
Cc1c(C(=O)c2ccc(F)cc2)c2ccccn2c1CCc1ccccn1,"inconclusive: 16.4 µM [falling, single point]",–
COc1ccc(NC(=O)c2ccc3ccccc3c2OC)cc1,"inconclusive: 18.4 µM [activator, partial curve]",–
Nc1ncnc2c1nc(SCCO)n2Cc1ccccc1,"inconclusive: 7.31 µM [falling, partial curve]",–
COCCN(C(=O)c1csnn1)C(C(=O)NC1CCCCC1)c1ccccc1F (stereo unspecified),–,inactive: 3.71%
COc1ccccc1NC(=O)Cn1cnc2ccc(S(=O)(=O)N3CCC(C)CC3)cc2c1=O,"inconclusive: 10.3 µM [falling, partial curve, poor fit]",–
Cc1ccc2cc(C)c3nnc(SCC(=O)Nc4nc5c(s4)CCCC5)n3c2c1C,–,inactive: -3.34%

SMILES,Potency,"activity change, negative = inhibition"
CCOC(=O)c1c(C)c(C(=O)Nc2ccc(F)cc2)c(C)n1C,"inconclusive: 2.91 µM [activator, full curve]",–
Cc1ccc(OCC(=O)N(C)CC(=O)Nc2ccc(F)cc2)c([N+](=O)[O-])n1,"inconclusive: 2.91 µM [activator, single point]",–
Cc1nc2ccccc2cc1OCc1ccccc1,"inconclusive: 5.8 µM [falling, partial curve, poor fit]",–
COc1cc2ncnc(N[C@H](C)c3ccccc3)c2cc1OC,"inconclusive: 13 µM [falling, partial curve]",–
CCC1(C)CC(=O)N(c2ccc(F)c(Cl)c2)C(=O)C1,–,inactive: -1.69%
O=C(CCCOc1ccccc1)N1CCCCC1,"inconclusive: 29.1 µM [falling, single point]",–
Cc1ccc(-n2nc(C)c3c(C)cc(=O)n(CC(=O)Nc4cc(Cl)ccc4C)c32)cc1,–,inactive: 17.4%
Nc1ccc2oc(-c3ccccc3Br)nc2c1,"inconclusive: 3.26 µM [activator, full curve, poor fit]",–
C=CCOC(=O)COc1ccc2c(C)c(C)c(=O)oc2c1C,–,inactive: -4.72%
Cc1ccccc1NC(=O)CSc1nc2ccc(NC(=O)CCc3ccccc3)cc2s1,"inconclusive: 29.1 µM [falling, single point]",–
COC(=O)c1sccc1S(=O)(=O)N(CC(=O)Nc1ccccc1C)c1ccc(Cl)cc1,"inconclusive: 29.1 µM [activator, single point]",–
Cc1nn(CC(=O)NNC(=S)NCC2CCCO2)c(C)c1Br (stereo unspecified),"inconclusive: 0.259 µM [falling, full curve, poor fit]",–
CC(=O)N1CCN(c2ccc(NC(=O)c3ccc(C(C)(C)C)cc3)cc2)CC1,"inconclusive: 23.1 µM [falling, partial curve, poor fit]",–
Cc1ncccc1C(=O)N1CCCC(CNC(=O)c2ccc(-c3ccccc3)cc2)C1 (stereo unspecified),"inconclusive: 11.6 µM [falling, partial curve]",–
COc1cc(/C=C(\C#N)c2nc3ccccc3s2)cc([N+](=O)[O-])c1O,"inconclusive: 32.6 µM [falling, single point]",–
Cn1c(=O)c2c(ncn2CC(=O)Nc2nc(-c3ccc(F)c(F)c3)cs2)n(C)c1=O,"inconclusive: 4.11 µM [falling, partial curve, poor fit]",–
Cc1cc[n+](-c2nc3ccccc3nc2[N-]S(=O)(=O)c2ccccc2)cc1,–,inactive: 11.9%
Cc1c(O)ccc2c3c(c(=O)oc12)CCCC3,–,inactive: -7.63%
Cc1ccc(NC(=O)c2cc(N3C(=O)C=CC3=O)ccc2N2CCOCC2)cc1Cl,–,inactive: -16.7%
COc1ccc2c(c1)-c1c(sn(-c3ccc(OC)c(OC)c3)c1=S)C(C)(C)N2,"inconclusive: 13 µM [falling, partial curve, poor fit]",–
COc1cccc(OC)c1C(=O)Nc1ccccc1N1CCCCC1,"inconclusive: 14.6 µM [falling, partial curve, poor fit]",–
COc1ccc(C2(c3ccc(OC)cc3)NC(=O)N(CC(=O)Nc3ccc(OC(F)F)cc3)C2=O)cc1,"inconclusive: 23.1 µM [falling, single point]",–

# — PubChem BioAssay AID504444 (National Center for Advancing Translational Sciences (NCATS), 2011)
